Key:
[1] = Shuttle durability of sample tape: playback output change after 100 runs on AIT2 deck; settings: difference between initial output and playback output after 100 runs; for Shuttle durability (dB) (−5° C.): 20% RH
[2] = Corrosion resistance: magnetic deterioration rate after storage in high-temperature, high-humidity environment; settings: one week at 60° C. and 80% RH
[3] = Corrosion resistance: magnetic deterioration rate after storage in corrosive gas environment; settings: 5 hours, 35° C., 70% RH, 2 ppm H2S and 1 ppm HCl
[4] = Friction coefficient of sample tape coated with the lubricant, after 1000 runs; settings: 1 mg/m^2 on carbon film layer

Row | SMILES | Shuttle durability (dB) (40° C., 20% RH) [1] | Shuttle durability (dB) (−5° C.) [1] | High-temperature, high-humidity environment (magnetic deterioration rate) ([2]; Tables 8 and 9) | Corrosive gas environment (magnetic deterioration rate) ([3]; Tables 8 and 9) | Friction coefficient (40° C., 80% RH) [4] | High-temperature, high-humidity environment (magnetic deterioration rate) ([2]; Tables 17 and 18) | Corrosive gas environment (magnetic deterioration rate) ([3]; Tables 17 and 18)
1 | O=C(O)CC(CC(=O)OCCCCCCC(F)(F)C(F)(F)C(F)(F)C(F)(F)C(F)(F)C(F)(F)C(F)(F)C(F)(F)F)C(=O)O (stereo not drawn) [Example 8, CF3(CF2)7(CH2)6OCOCH2CH(COOH)CH2COOH] | −0.8 dB | −0.5 dB | ⊙ (magnetic deterioration rate is 1% or less) | ⊙ (magnetic deterioration rate is 1% or less) | 0.22 |  | 
2 | O=C(O)CC(OC(=O)CCCCCCCCCCC(F)(F)C(F)(F)C(F)(F)C(F)(F)F)C(=O)O (stereo not drawn) [Example 2, CF3(CF2)3(CH2)10COOCH(COOH)CH2COOH] | −1.0 dB | −0.5 dB | ⊙ (magnetic deterioration rate is 1% or less) | ◯ (magnetic deterioration rate is 3% or less) | 0.23 |  | 
3 | CCCCCCCCCCCCCCCCCCC(CC(=O)OC(CC(=O)O)C(=O)O)C(=O)OCCC(F)(F)C(F)(F)C(F)(F)C(F)(F)C(F)(F)C(F)(F)C(F)(F)C(F)(F)F (stereo not drawn) [Example 28, CF3(CF2)7(CH2)2OCOCH(C18H37)CH2COOCH(COOH)CH2COOH] | −0.8 dB | −0.5 dB |  |  | 0.23 | ⊙ (magnetic deterioration rate is 1% or less) | ⊙ (magnetic deterioration rate is 1% or less)
4 | CCCCCCCCCCCCCCCCCCC(CC(=O)OCCC(F)(F)C(F)(F)C(F)(F)C(F)(F)F)C(=O)OC(CC(=O)O)C(=O)O (stereo not drawn) [Example 32, CF3(CF2)3(CH2)2OCOCH2CH(C18H37)COOCH(COOH)CH2COOH] | −1.0 dB | −0.5 dB |  |  | 0.25 | ◯ (magnetic deterioration rate is 3% or less) | ⊙ (magnetic deterioration rate is 1% or less)
5 | O=C(O)CC(CC(=O)OCCC(F)(F)C(F)(F)C(F)(F)C(F)(F)F)C(=O)O (stereo not drawn) [Example 21, CF3(CF2)3(CH2)2OCOCH2CH(COOH)CH2COOH] | −2.0 dB | −1.5 dB |  |  | 0.28 | ◯ (magnetic deterioration rate is 3% or less) | ◯ (magnetic deterioration rate is 3% or less)
6 | CCCCCCCCCCCCCCCCCCC(CC(=O)OCCC(F)(F)C(F)(F)C(F)(F)C(F)(F)C(F)(F)C(F)(F)C(F)(F)C(F)(F)C(F)(F)C(F)(F)F)C(=O)OC(CC(=O)O)C(=O)O (stereo not drawn) [Example 31, CF3(CF2)9(CH2)2OCOCH2CH(C18H37)COOCH(COOH)CH2COOH] | −0.8 dB | −1.0 dB |  |  | 0.22 | ⊙ (magnetic deterioration rate is 1% or less) | ⊙ (magnetic deterioration rate is 1% or less)
7 | O=C(O)CC(OC(=O)CCCCCCCCCCCCC(F)(F)C(F)(F)C(F)(F)C(F)(F)C(F)(F)C(F)(F)C(F)(F)C(F)(F)F)C(=O)O (stereo not drawn) [Example 16, CF3(CF2)7(CH2)12COOCH(COOH)CH2COOH] | −1.0 dB | −1.0 dB | ⊙ (magnetic deterioration rate is 1% or less) | ⊙ (magnetic deterioration rate is 1% or less) | 0.23 |  | 
8 | O=C(O)CC(OC(=O)CCCCCCCCCCC(F)(F)C(F)(F)C(F)(F)C(F)(F)C(F)(F)C(F)(F)F)C(=O)O (stereo not drawn) [Example 17, CF3(CF2)5(CH2)10COOCH(COOH)CH2COOH] | −1.0 dB | −0.8 dB | ⊙ (magnetic deterioration rate is 1% or less) | ◯ (magnetic deterioration rate is 3% or less) | 0.23 |  | 
9 | O=C(O)CC(OC(=O)CCCCC(F)(F)C(F)(F)C(F)(F)C(F)(F)F)C(=O)O (stereo not drawn) [Example 13, CF3(CF2)3(CH2)4COOCH(COOH)CH2COOH] | −1.3 dB | −1.0 dB | ◯ (magnetic deterioration rate is 3% or less) | ◯ (magnetic deterioration rate is 3% or less) | 0.27 |  | 
10 | CCCCCCCC(CCC(CCCCCCCC(=O)OC(CC(=O)O)C(=O)O)CCC(F)(F)C(F)(F)C(F)(F)C(F)(F)C(F)(F)C(F)(F)C(F)(F)C(F)(F)C(F)(F)C(F)(F)F)CCC(F)(F)C(F)(F)C(F)(F)C(F)(F)C(F)(F)C(F)(F)C(F)(F)C(F)(F)C(F)(F)C(F)(F)F (stereo not drawn) [Example 20, CH3(CH2)3(CH2CH2CH(CH2CH2(CF2)9CF3))2(CH2)7COOCH(COOH)CH2COOH] | −1.0 dB | −0.5 dB | ◯ (magnetic deterioration rate is 3% or less) | ⊙ (magnetic deterioration rate is 1% or less) | 0.20 |  | 
11 | CCCCCCCCCC(CCCCCCCCOC(=O)CC(CC(=O)O)C(=O)O)C(F)(F)C(F)(F)C(F)(F)C(F)(F)C(F)(F)C(F)(F)C(F)(F)C(F)(F)F (stereo not drawn) [Example 25, CF3(CF2)7CH(C9H19)(CH2)8OCOCH2CH(COOH)CH2COOH] | −1.0 dB | −0.5 dB |  |  | 0.20 | ⊙ (magnetic deterioration rate is 1% or less) | ⊙ (magnetic deterioration rate is 1% or less)
12 | CCCCCCC(CCCCCCCC(=O)OC(CC(=O)O)C(=O)O)C(F)(F)C(F)(F)C(F)(F)C(F)(F)C(F)(F)C(F)(F)C(F)(F)C(F)(F)F (stereo not drawn) [Example 19, CF3(CF2)7CH(C6H13)(CH2)7COOCH(COOH)CH2COOH] | −1.5 dB | −1.0 dB | ◯ (magnetic deterioration rate is 3% or less) | ⊙ (magnetic deterioration rate is 1% or less) | 0.24 |  | 
13 | CCCCCCCCCCCCCCCCCCC(CC(=O)OCC(CC(F)(F)C(F)(F)C(F)(F)C(F)(F)C(F)(F)C(F)(F)F)OC(=O)CC(CCCCCCCCCCCCCCCCCC)C(=O)O)C(=O)O (stereo not drawn) [Comparative Example 7, C18H37CH(COOH)CH2COOCH(CH2C6F13)CH2OCOCH2CH(COOH)C18H37, reference compound] | −4.0 dB | −3.5 dB | ◯ (magnetic deterioration rate is 3% or less) | ◯ (magnetic deterioration rate is 3% or less) | 0.23 |  | 
14 | CCCCCCCCCCCCCCCCCCC(CC(=O)OCCCCCCCC(CC(CCCCC)C(F)(F)C(F)(F)C(F)(F)C(F)(F)C(F)(F)C(F)(F)C(F)(F)C(F)(F)C(F)(F)C(F)(F)F)C(F)(F)C(F)(F)C(F)(F)C(F)(F)C(F)(F)C(F)(F)C(F)(F)C(F)(F)C(F)(F)C(F)(F)F)C(CC(=O)O)C(=O)O (stereo not drawn) [Example 37, CH3(CH2)3(CH2CH((CF2)9CF3))2(CH2)7OCOCH2CH(C18H37)CH(COOH)CH2COOH] | −1.0 dB | −1.0 dB |  |  | 0.21 | ⊙ (magnetic deterioration rate is 1% or less) | ⊙ (magnetic deterioration rate is 1% or less)
15 | CCCCCCCCCC(CCCCCCC)C(CC(=O)OCCC(F)(F)C(F)(F)C(F)(F)C(F)(F)C(F)(F)C(F)(F)C(F)(F)C(F)(F)F)C(=O)OC(CC(=O)O)C(=O)O (stereo not drawn) [Example 36, CF3(CF2)7(CH2)2OCOCH2CH(CH(C7H15)(C9H19)COOCH(COOH)CH2COOH] | −1.0 dB | −1.0 dB |  |  | 0.23 | ◯ (magnetic deterioration rate is 3% or less) | ⊙ (magnetic deterioration rate is 1% or less)
